This is an account of results in publication PMC8257531.

Sequences of proteins named here, by UniProt entry; tags and fusion partners are left off.
UniProt Q14789: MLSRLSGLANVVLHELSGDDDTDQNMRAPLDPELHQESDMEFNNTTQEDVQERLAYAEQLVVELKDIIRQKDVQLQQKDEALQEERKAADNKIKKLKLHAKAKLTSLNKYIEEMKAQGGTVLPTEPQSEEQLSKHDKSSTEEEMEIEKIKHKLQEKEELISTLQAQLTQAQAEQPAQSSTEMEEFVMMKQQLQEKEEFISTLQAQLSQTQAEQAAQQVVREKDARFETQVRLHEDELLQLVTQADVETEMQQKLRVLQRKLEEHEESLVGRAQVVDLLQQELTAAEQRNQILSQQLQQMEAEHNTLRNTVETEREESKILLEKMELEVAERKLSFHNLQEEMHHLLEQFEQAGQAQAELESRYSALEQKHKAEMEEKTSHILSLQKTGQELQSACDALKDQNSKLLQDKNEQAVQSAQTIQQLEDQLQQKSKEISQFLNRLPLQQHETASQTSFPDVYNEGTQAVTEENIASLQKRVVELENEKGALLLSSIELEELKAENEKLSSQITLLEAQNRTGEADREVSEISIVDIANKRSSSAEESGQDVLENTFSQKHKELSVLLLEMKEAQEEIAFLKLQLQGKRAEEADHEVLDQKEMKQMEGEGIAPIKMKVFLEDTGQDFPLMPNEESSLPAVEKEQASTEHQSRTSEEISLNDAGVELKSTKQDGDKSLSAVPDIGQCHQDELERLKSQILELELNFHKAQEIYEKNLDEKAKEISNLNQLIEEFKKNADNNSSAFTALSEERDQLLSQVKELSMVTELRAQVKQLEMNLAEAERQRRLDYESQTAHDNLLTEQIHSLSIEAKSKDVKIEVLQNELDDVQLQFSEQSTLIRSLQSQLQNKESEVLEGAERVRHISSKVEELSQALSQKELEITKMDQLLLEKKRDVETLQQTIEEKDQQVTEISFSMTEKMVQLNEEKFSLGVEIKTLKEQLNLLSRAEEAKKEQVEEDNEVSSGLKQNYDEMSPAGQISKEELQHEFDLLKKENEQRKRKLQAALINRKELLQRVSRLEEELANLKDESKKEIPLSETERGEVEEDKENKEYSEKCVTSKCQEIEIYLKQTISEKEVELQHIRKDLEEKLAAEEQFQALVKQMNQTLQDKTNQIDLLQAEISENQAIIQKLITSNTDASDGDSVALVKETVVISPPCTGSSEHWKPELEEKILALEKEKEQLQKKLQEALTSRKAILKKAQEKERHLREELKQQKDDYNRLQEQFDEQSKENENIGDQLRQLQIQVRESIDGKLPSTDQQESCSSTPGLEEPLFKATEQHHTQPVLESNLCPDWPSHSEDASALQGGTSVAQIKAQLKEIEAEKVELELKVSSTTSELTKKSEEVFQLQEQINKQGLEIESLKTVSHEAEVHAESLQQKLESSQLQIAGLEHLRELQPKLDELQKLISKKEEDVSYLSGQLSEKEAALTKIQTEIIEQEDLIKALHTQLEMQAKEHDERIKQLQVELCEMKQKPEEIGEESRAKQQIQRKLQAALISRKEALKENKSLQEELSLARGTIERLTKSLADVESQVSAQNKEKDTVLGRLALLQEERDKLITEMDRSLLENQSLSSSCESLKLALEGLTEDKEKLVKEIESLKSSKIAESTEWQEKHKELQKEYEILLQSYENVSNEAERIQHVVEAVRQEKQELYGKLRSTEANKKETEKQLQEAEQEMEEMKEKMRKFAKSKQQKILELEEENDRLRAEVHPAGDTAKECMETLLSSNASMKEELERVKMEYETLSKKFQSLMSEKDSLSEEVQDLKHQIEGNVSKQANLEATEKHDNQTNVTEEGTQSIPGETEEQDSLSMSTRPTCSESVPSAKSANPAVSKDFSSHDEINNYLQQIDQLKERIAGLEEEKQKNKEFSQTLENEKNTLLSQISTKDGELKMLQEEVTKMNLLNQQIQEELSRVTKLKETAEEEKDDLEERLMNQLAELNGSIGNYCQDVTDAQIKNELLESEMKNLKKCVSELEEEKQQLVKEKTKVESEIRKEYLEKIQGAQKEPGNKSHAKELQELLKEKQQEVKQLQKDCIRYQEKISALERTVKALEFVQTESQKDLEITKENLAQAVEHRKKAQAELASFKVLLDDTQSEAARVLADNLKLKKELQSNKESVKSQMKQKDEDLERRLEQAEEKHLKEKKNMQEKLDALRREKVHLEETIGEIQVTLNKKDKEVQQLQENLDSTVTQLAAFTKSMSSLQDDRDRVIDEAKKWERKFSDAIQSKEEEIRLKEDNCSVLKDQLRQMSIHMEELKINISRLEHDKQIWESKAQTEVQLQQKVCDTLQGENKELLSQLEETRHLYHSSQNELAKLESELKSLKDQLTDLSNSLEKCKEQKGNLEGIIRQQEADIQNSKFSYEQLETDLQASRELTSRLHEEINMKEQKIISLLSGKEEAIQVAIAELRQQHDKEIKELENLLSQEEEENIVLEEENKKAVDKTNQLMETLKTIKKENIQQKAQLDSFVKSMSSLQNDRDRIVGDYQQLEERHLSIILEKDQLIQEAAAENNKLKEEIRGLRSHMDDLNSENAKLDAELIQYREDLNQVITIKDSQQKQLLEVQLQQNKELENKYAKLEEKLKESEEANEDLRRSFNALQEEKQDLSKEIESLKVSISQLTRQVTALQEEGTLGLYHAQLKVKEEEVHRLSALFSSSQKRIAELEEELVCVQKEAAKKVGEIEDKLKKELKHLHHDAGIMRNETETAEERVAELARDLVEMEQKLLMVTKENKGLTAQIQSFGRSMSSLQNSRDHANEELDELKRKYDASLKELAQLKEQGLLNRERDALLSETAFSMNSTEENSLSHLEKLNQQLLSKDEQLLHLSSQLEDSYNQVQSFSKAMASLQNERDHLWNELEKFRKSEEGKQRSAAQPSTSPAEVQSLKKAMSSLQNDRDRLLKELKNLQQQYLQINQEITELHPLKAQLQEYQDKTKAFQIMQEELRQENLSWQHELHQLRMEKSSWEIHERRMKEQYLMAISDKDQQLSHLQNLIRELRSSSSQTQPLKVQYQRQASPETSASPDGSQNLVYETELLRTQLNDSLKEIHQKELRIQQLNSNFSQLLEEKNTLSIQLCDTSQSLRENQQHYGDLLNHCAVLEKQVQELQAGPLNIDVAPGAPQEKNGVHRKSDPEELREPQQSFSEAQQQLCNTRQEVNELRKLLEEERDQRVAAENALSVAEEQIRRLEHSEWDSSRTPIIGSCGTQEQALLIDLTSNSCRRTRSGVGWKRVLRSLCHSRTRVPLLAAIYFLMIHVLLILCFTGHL
UniProt Q13439: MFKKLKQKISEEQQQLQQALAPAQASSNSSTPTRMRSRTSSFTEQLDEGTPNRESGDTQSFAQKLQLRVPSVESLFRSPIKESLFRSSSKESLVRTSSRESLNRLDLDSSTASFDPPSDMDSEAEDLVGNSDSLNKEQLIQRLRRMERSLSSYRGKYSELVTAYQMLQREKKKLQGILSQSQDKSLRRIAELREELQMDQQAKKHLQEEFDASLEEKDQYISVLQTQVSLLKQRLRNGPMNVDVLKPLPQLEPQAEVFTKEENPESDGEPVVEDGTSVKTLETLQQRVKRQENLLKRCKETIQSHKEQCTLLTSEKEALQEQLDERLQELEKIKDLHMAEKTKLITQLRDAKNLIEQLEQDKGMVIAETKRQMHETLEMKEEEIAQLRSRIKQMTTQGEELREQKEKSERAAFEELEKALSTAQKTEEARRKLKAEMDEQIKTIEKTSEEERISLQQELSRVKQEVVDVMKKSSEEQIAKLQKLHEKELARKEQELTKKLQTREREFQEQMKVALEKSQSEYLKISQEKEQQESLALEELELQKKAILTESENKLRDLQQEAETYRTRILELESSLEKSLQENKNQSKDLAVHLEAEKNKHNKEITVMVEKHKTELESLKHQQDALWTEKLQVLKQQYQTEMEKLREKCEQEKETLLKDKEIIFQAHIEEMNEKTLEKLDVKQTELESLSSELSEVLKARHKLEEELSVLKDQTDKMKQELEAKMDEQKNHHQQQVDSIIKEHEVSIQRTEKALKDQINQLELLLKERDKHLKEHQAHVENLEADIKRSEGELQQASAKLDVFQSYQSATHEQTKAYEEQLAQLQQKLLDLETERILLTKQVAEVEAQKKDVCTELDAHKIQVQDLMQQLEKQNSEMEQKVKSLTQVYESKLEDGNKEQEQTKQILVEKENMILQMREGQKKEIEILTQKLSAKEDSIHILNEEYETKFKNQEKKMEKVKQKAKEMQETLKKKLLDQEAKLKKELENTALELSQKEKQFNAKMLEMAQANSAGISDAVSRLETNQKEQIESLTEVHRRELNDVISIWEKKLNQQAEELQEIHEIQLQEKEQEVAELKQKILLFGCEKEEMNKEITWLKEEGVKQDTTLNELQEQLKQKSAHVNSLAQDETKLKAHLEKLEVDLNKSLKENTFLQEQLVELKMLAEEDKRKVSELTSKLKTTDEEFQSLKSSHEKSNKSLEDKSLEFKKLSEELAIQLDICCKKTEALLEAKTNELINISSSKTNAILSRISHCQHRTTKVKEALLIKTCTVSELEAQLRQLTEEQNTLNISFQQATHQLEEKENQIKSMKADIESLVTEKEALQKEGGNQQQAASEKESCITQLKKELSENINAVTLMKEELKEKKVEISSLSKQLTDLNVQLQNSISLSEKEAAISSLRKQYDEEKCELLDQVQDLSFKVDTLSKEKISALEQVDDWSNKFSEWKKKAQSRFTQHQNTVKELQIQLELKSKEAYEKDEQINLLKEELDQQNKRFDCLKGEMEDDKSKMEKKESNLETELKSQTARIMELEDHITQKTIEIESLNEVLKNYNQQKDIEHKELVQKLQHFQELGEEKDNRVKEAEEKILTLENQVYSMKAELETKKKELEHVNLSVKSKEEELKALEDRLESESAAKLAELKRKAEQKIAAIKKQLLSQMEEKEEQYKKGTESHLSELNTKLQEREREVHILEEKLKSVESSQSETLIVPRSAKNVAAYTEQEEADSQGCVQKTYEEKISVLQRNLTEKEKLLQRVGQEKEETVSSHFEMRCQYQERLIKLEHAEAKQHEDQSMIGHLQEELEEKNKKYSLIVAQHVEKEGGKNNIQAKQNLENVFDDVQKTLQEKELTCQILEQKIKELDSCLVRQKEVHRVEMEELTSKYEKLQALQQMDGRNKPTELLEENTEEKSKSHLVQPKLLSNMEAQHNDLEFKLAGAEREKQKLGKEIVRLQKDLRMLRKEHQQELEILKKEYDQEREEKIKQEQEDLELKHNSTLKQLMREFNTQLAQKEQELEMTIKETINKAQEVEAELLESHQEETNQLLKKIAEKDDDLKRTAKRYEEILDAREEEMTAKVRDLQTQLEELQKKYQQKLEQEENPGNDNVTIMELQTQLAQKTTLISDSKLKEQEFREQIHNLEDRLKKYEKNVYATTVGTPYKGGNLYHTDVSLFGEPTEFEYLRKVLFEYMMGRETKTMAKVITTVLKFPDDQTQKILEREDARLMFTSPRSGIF

Results are given in words; binding and its absence hold for the method and conditions named. In cells and extracts the contact can be indirect. Here binding means that the protein was enriched with, or labelled near, the bait; the list need not be complete.

In this assay the target is T1, ARL15^A86L (BioID bait) (UniProt Q9NXU5).
T1 sequence: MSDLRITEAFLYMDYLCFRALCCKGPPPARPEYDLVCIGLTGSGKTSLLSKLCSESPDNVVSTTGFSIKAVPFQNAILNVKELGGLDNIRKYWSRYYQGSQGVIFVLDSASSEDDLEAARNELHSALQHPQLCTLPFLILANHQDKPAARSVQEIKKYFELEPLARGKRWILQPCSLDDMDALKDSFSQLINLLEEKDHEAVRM
In words: proximity labelling; BioID; cleared lysates of ARL15^A86L expressing Flp-In T-REx HeLa cells on streptavidin beads, on-bead trypsin digestion, mass spectrometry; SAINT AvgP >= 0.95.

As for GOLGB1 (from UniProt Q14789 1-3259), the binding entry is “binds”. As to GOLGA4 (from UniProt Q13439 1-2230), the binding result is given as “binds”.
